Measured values: publication PMC6449940, “The Cdc42 effectors Gic1 and Gic2 regulate polarized post-Golgi secretion” (Cell & Bioscience, 2019)
No constants are given. Whether binding was seen depends on the method and setting. For some assays here: In cells and extracts the contact can be indirect. Some entries that bind do so weakly or less than the wild type. For some assays here: Where a sequence is shown, tags or fusion partners need not be part of it.

Chains of the proteins cited; added tags and fusions are not shown. Lines headed by an entry give the natural chain unless they say otherwise; changes in a name come on top. Residues count along the entry.
UniProt P33332, 71-241: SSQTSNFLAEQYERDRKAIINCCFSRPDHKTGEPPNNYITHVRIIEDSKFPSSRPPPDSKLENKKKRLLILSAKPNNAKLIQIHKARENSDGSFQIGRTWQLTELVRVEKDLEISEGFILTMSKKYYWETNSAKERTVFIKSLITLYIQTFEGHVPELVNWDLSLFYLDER

target: GST-Sec3N (a.a.71–241) (S. cerevisiae (budding yeast)) (UniProt P33332); assay: pull-down; GST-Sec3N (a.a.71–241) on glutathione Sepharose, His6-Cdc42 or mutant in the presence of GDP; bound protein detected with anti-Hisx6 antibody; both purified

Molecule	binding
His6-cdc42-302 (V36A F37A) (from UniProt P19073 1-191)	no binding
His6-cdc42-305 (Y64A R66A) (from UniProt P19073 1-191)	no binding
His6-cdc42-304 (Y64A) (from UniProt P19073 1-191)	no binding
His6-cdc42-303 (Q61A) (from UniProt P19073 1-191)	no binding
His6-cdc42-301 (V36A) (from UniProt P19073 1-191)	no binding

target: T1, Sec5-GFP (S. cerevisiae (endogenous in yeast)) (UniProt P89102); assay: co-IP; yeast lysates of wild-type, sec3∆N, gic1∆gic2∆ and triple mutant strains, cells at 25°C or shifted to 37°C for 2 h; Sec5-GFP immuno-isolated with anti-GFP antibody and protein G beads, 50 mM Tris–HCl pH 7.5, 150 mM NaCl, 4 °C; blots for exocyst components
T1 sequence: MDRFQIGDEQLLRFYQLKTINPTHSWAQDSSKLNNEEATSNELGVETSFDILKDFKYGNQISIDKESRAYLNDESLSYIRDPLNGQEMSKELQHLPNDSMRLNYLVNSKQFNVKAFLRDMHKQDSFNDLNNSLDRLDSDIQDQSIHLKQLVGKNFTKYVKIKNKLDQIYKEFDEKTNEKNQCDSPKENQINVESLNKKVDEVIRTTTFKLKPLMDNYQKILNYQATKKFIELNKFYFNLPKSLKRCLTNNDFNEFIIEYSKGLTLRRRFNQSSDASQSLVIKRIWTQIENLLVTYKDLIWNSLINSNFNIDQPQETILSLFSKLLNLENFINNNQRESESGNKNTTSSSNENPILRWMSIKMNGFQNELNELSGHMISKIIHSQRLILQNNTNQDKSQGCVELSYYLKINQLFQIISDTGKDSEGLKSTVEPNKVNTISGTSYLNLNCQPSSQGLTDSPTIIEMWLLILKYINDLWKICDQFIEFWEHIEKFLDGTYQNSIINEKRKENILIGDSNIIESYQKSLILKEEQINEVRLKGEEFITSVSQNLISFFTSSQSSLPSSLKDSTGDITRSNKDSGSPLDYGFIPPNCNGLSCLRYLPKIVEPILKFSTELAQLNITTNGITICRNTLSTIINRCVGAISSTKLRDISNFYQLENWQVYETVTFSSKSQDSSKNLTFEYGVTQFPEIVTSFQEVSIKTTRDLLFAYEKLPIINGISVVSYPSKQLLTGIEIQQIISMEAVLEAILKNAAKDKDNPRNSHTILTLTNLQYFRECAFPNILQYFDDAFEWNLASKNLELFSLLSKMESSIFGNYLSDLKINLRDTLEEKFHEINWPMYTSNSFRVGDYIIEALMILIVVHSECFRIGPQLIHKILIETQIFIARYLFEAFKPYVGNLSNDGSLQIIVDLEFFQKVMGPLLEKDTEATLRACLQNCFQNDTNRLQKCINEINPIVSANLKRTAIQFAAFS

Molecule	binding
Sec8 (protein, UniProt P32855 1-1065) MDYLKPAQKGRRRGLSINSLSETQQSAMNSSLDHLQNDLNRINLQWNRILSDNTNPLELALAFLDDTSVGLGHRYEEFNQLKSQIGSHLQDVVNEHSQVFNTNVASYGKAVSSIMQAQEQTLNLKNCLKEANEKITTDKGSLQELNDNNLKYTKMIDVLVNIEELLQIPEKIEENIRKENFHQVQILLERGFILMNNKSLKTVEILKPINQQLELQEHLLFNNLIEEIHDIMYSKSNKTNFTRVTNNDIFKIISISHNGFTSLENYLYNIVNIDIMEHSKTINKNLEQFIHDQSLNKGNIMLQENAATQAPLAPSRNQENEGFNRIGFLLKTINNINKLPVAFNIITERAKEEIHNIIVKSTESIRSKHPSLLKMATSLKNDNHFGLPVQDILSIILRECFWEIFLKLLYAIQCHRAIFEMSNILQPTSSAKPAFKFNKIWGKLLDEIELLLVRYINDPELISSNNGSIKPINGATNNAPTLPKRKNPKIFSLEYNIEDNSSVKDQAFELKALLKDIFPGFSVSSNMDLDSIYVKDESFEQDEPLVPPSVFNMKVILDPFLLFTQSTSTIVPSVLTQNTISSLTFFDDYMNKSFLPKIQMTMDYLFTVEVESNNPYALELSDENHNIFKTALDFQRLFYNLLNVFNTANTFREKISYCILDLLNHFYNYYLGLFNSLIGTSDRHLTRKIITAWLQNGILMDQEQKILNGDETLFHEESIELFKEIPHFYQAGKGLSKSDLFNNLTLDTILQFSASVLWILNWLPGLKKAINIDEVSQEPMLDADRLRSSWTFSESMDLNYSNPSSSPNSLGNLKILLDDKASKKFDETIDGFKTLKFKLITILRFNIRALCIYDIGSFFQNTKIWNMDVGSIELDQNIASLISELRRTESKLKQQLPEKEKNSIFIGLDIVNNYALIKGAKSIKVLNHNGIKKMLRNVNVLQHAYRNLSSEPSKINMNVTMNFYSLCGSSEAELFEYIKDNELPHCSVEDLKTILRLQFSEEMHRQLKRQSTSSTKGSIKPSNKRYTEALEKLSNLEKEQSKEGARTKIGKLKSKLNAVHTANEK	binds
Sec10 (protein, UniProt Q06245 1-871) MNSLYELDPKWKKLLKTDNFLGGLTVNEFVQELSKDHRNDVLIDANTKNLPTNEKDQDAIREAIWKQLDPKPYIRTFESTLKELKNLNEETLNKRQYFSEQVATQEVIHSENVIKLSKDLHTTLLTFDKLDDRLTNVTQVVSPLGDKLETAIKKKQNYIQSVELIRRYNDFYSMGKSDIVEQLRLSKNWKLNLKSVKLMKNLLILSSKLETSSIPKTINTKLVIEKYSEMMENELLENFNSAYRENNFTKLNEIAIILNNFNGGVNVIQSFINQHDYFIDTKQIDLENEFENVFIKNVKFKEQLIDFENHSVIIETSMQNLINDVETVIKNESKIVKRVFEEKATHVIQLFIQRVFAQKIEPRFEVLLRNSLSISNLAYVRILHGLFTLFGKFTKSLIDYFQLLEIDDSNQILSTTLEQCFADLFSHYLYDRSKYFGIEKRSLEAILVDMTSKFTVNYDKEINKRVLLDKYKEKLSTNVDAFMHSPRGNTHSRQDSTSRSKLSQFNSFLKTHLDKDHLSLNRTNTLSDSFNNSSSSTQYDVANNSSSLVNSSFTASDIDNSPNSPANYSLNDVDSMLKCVVESTARVMELIPNKAHLYILEILKIMFLGIVDSYMEIALEVAYWKICKVDINKTAGVVNLNFLKFISMSTEILDLLSISIKSIFLPLLNNSPEIKAQIIEMTNSQIQKMEILINIILQETITVISTKFSAILCKQKKKDFVPKSQELLDQDTLPAIEIVNILNLIFEQSSKFLKGKNLQTFLTLIGEELYGLLLSHYSHFQVNSIGGVVVTKDIIGYQTAIEDWGVASLIDKFATLRELANLFTVQPELLESLTKEGHLADIGRDIIQSYISNREDFNHDNFINSVKLNFR	binds
Sec15 (protein, UniProt P22224 1-910) MDQEGQPLLSKDFQQVLLATASGNNSSWTERAVLNNESTDAVKHEPALGQNDVFDLDPLSFDKWVPFLRRALDKNQLDPVIDELENSIEDNFQGLELQLLQDSQMNDKLETSIDEIANIQGMVQDTLSSEISKFQIRLSESANELIVKKQMYVNNKKISLKISEATILITKVVRILELSSKCQELITERKFFKVLQNLDSLEKLYLQEFKNYNFQFLIEIYNSIPFLQKVTKDECINLIRNSLNLNLGKNLIKVGQEFVAIYENELLPQWLETRSKMKLTNFKFNSPIEISMRDESFLAKLNLGEFFQLDDFHDSIMIFQNLNELSVLSGEFNKEYELRKTKLMYPLIWKKNKTAAYQMDSLLRGTGTTPGSTAHDVSTDDPFTQSLSLHFLQDYFLKILGFLLYDINLNKATEFILVDNNYNSTNEFWDGLMDRLSPYLSYFIDEKLKTEEDMIKLKDFLCIYVAILENFKLNIEPLYKILVSIFEKFCSVSLRAFDDEFQILLNDDDFMPLSINDKTLYEKVLKICWMKEGEHLSLPDPTNGEPFAVTLPFSPLYPMTCTLAKKTYSKITAFLSIFYRHELHTLNNILVKTMDDIFNDIVNKKIRSKLESTSREEIAQILVNLDYFIIAAKEFSNFMTRENILQNPDMEIRLSSIKYLAESRKLAETKLIELIDSKISDILETIEIDWQITEVRQDPDISIIDLAQFLEMMFASTLQNLPYSVQTLLIFREFDSLTRQFMGLLLHDTPSTITHESIMNFEVDVNYLESIIPRIFPSTPGTIDSNGYQSPMTPSTPTFPNANGVDAPTLFENNIKSLEATFMELKQCIELLKTQGKDYNEPEIRLRKYSRIRQEDAALLLSKIQHFVSSVEGANGDDTSVMDSSSIFNSESASVIDSNTSRIAKFFNRR	binds
